In assay [1] the target is recombinant truncated CHK2 WT (residues 70 to 512) (human) (UniProt O96017). The assay can be described thus: dynamic light scattering; 0.15 mg·ml^−1 in SEC buffer, centrifuged at 10,000g; particle size at resting temperature (start of the 20 to 90 °C ramp) and at time 0 at 42 °C; both purified.
For assay [2] the target is unchanged. The assay can be described thus: SEC; analytical SEC of the purified proteins; one major peak corresponding to 65 kDa; both purified. On the technique in general: Size exclusion chromatography separates by hydrodynamic size, large species first.
Assay [3] addresses recombinant truncated CHK2 p.I157T (residues 70 to 512) (human) (UniProt O96017). In words: dynamic light scattering; 0.15 mg·ml^−1 in SEC buffer, centrifuged at 10,000g; particle size at resting temperature (start of the 20 to 90 °C ramp) and at time 0 at 42 °C; both purified.
The target is the same in assay [4]. In words: SEC; analytical SEC of the purified proteins; one major peak corresponding to 65 kDa; both purified.

By UniProt entry, the sequences of proteins in these tests, tags left out. Where a name states a change or a piece, a line headed by the entry shows the natural chain unless it says otherwise. Chains listed by the source or under a name are the forms on record and can include a tag or linker. Residues count along the entry.
recombinant truncated CHK2 WT (residues 70 to 512) (O96017, residues 70-512): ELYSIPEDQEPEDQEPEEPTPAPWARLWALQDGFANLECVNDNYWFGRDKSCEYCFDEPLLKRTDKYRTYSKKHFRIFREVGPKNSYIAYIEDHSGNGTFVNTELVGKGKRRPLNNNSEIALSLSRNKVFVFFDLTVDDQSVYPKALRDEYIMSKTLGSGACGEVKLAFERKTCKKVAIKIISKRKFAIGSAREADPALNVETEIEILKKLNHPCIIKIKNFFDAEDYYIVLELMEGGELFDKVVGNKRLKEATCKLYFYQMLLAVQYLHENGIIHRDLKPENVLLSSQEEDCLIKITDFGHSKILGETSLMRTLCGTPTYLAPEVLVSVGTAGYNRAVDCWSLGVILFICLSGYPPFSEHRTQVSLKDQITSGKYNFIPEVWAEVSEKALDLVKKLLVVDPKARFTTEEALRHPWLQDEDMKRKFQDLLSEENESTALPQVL
recombinant truncated CHK2 p.I157T (residues 70 to 512) (O96017-1, form named): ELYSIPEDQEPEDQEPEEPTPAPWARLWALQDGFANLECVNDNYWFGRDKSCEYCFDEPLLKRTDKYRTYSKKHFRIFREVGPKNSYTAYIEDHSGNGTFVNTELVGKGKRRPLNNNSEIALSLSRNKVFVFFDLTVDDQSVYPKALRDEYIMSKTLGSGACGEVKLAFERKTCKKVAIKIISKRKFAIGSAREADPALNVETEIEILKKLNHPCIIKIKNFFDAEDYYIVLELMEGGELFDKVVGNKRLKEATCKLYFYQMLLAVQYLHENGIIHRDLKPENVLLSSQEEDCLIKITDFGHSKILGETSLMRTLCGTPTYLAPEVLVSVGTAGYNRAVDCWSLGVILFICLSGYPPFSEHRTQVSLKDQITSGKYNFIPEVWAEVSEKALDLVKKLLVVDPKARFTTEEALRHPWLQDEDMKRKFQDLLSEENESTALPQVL

No constants are given. Whether binding was seen depends on the method and setting.

In the case of “recombinant truncated CHK2 WT (residues 70 to 512) (from UniProt O96017-1 70-512) (domain or fragment)”, the figures for the binding result in assay [1] and in assay [2] were “no binding (tested: 0.15 mg·ml^−1)” and “no binding”, respectively.

Turning to “recombinant truncated CHK2 p.I157T (residues 70 to 512) (from UniProt O96017-1 70-512) (domain or fragment)”, the figures for the binding entry in assay [3] and in assay [4] were “no binding (tested: 0.15 mg·ml^−1)” and “no binding”, respectively.

The values are drawn from publication PMC10956065.
